For some of these results: HELM strings list residues between dots; [ac] is acetyl, [am] amide, other brackets name non-standard units.
Test: Circular dichroism, helicity
Type: physicochemical
Conditions: CD, in buffer (20 mM potassium phosphate, pH 7.5, 150 µM peptide)

Molecule | % helicity [%]
CC[C@H](C)[C@H](NC(=O)[C@H](CCCNC(=N)N)NC(=O)[C@H](CCCNC(=N)N)NC(=O)[C@H](CC(C)C)NC(=O)[C@H](CCC(N)=O)NC(=O)[C@H](C)NC(=O)[C@H](C)NC(C)=O)C(=O)NCC(=O)N[C@@H](CC(=O)O)C(=O)N[C@@H](CCCCN)C(=O)N[C@H](C(=O)N[C@@H](CC(N)=O)C(=O)N[C@@H](CC(C)C)C(=O)N[C@@H](CCCNC(=N)N)C(=O)N[C@@H](CCC(N)=O)C(=O)N[C@@H](CCCCN)C(=O)N[C@@H](CC(C)C)C(=O)N[C@@H](CC(C)C)C(=O)N[C@@H](CC(N)=O)C(N)=O)C(C)C [NOXA75–93] | 15
Ac-AAQLRRIGDKFNLRQKLLN-NH2 [NOXA75–93V85F] | 9
Ac-AAQWRRIGDKVNLRQKLLN-NH2 [NOXA75–93L78W] | 12

Test: general procedure: Fmoc solid-phase peptide synthesis; Rink amide MBHA resin
Conditions: whole synthesis

Molecule | final purity (method not given) [%]
PEPTIDE1{[ac].A.A.Q.F.R.R.I.G.D.K.V.N.L.R.Q.K.L.L.N.[am]}$$$$V2.0 | 94
PEPTIDE1{[ac].A.A.Q.L.R.R.I.G.D.K.F.N.L.R.Q.K.L.L.N.[am]}$$$$V2.0 | 95
PEPTIDE1{[ac].D.N.E.I.E.I.I.I.V.W.E.K.K.[am]}$$$$V2.0 | 97
PEPTIDE1{[ac].A.A.Q.W.R.R.I.G.D.K.V.N.L.R.Q.K.L.L.N.[am]}$$$$V2.0 | 94
PEPTIDE1{[ac].D.N.E.I.E.V.E.I.V.W.E.K.K.[am]}$$$$V2.0 | 98
PEPTIDE1{[ac].D.N.E.I.E.V.I.I.V.W.E.K.K.[am]}$$$$V2.0 | 100
PEPTIDE1{[ac].A.A.Q.Y.R.R.I.G.D.K.V.N.L.R.Q.K.L.L.N.[am]}$$$$V2.0 | 95
PEPTIDE1{[ac].D.N.E.I.E.V.I.I.E.W.E.K.K.[am]}$$$$V2.0 | 91
PEPTIDE1{[ac].A.A.Q.L.R.R.I.G.D.K.V.N.L.R.Q.K.L.L.N.[am]}$$$$V2.0 | 90
DNED EVIIVWEKK | 96

— PMC8495968 (RSC Chemical Biology, 2021)
